# Assay results

The results are deposited in PubChem (AID504749; NCATS, 2011).

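Malaria parasite (P. falciparum) lines kept in red blood cells; parasite DNA is measured by SYBR Green fluorescence after lysis, 72 h after compound addition.
Each compound was titrated across a series from about 0.000037 to 29 µM.
The number is the fitted AC50, the concentration giving a half-maximal change in signal; a lower value means higher potency, whether the curve shows a decrease or an increase.
Calls follow the curve class and fit quality: every row here is inconclusive, covering signal-raising curves and weak, poorly fitted, partial or highest-dose-only inhibition curves.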

Values are in nM.
Every entry below has the call inconclusive.
Only part of the assay is shown, chiefly results filed as inconclusive.
Potencies fitted to partial, single-point or poorly fitting curves are rough.

With NC(=O)C(=O)N/N=C/c1ccc([N+](=O)[O-])o1 [DIV14] the assay gave Potency 15101 nM (inhibitor, single point). NC(=O)C(=O)N/N=C/c1ccc([N+](=O)[O-])o1 [DIV17] gave Potency 13459 nM (inhibitor, single point). For NC(=O)C(=O)N/N=C/c1ccc([N+](=O)[O-])o1 [CP325] the result was Potency 19011 nM (inhibitor, single point). NC(=O)C(=O)N/N=C/c1ccc([N+](=O)[O-])o1 [CP215] read Potency 16944 nM (inhibitor, single point). NC(=O)C(=O)N/N=C/c1ccc([N+](=O)[O-])o1 [PC26] read Potency 19011 nM (inhibitor, single point). For NC(=O)C(=O)N/N=C/c1ccc([N+](=O)[O-])o1 [CP269] the result was Potency 19011 nM (inhibitor, single point). NC(=O)C(=O)N/N=C/c1ccc([N+](=O)[O-])o1 [CP297] gave Potency 19011 nM (inhibitor, partial curve, poor fit). With NC(=O)C(=O)N/N=C/c1ccc([N+](=O)[O-])o1 [CP194] the assay gave Potency 16944 nM (inhibitor, single point).

Result for NC(=O)C(=O)N/N=C/c1ccc([N+](=O)[O-])o1 [CP266] was Potency 19011 nM (inhibitor, single point). For NC(=O)C(=O)N/N=C/c1ccc([N+](=O)[O-])o1 [DIV30] the result was Potency 19011 nM (inhibitor, single point). NC(=O)C(=O)N/N=C/c1ccc([N+](=O)[O-])o1 [CP192] read Potency 19011 nM (inhibitor, single point). NC(=O)C(=O)N/N=C/c1ccc([N+](=O)[O-])o1 [CP211] gave Potency 19011 nM (inhibitor, single point). With NC(=O)C(=O)N/N=C/c1ccc([N+](=O)[O-])o1 [CP315] the assay gave Potency 19011 nM (inhibitor, single point). For NC(=O)C(=O)N/N=C/c1ccc([N+](=O)[O-])o1 [CP268] the result was Potency 16944 nM (inhibitor, single point). NC(=O)C(=O)N/N=C/c1ccc([N+](=O)[O-])o1 [CP291] read Potency 13459 nM (inhibitor, single point). For CCCC(CCC)C(=O)OC1C[C@H]2CC[C@@H](C1)[N+]2(C)C (some centres undefined) [PAD] the result was Potency 15848 nM (inhibitor, single point).

CCCC(CCC)C(=O)OC1C[C@H]2CC[C@@H](C1)[N+]2(C)C (some centres undefined) [CP250] gave Potency 10000 nM (inhibitor, single point). With CCCC(CCC)C(=O)OC1C[C@H]2CC[C@@H](C1)[N+]2(C)C (some centres undefined) [CP315] the assay gave Potency 16944 nM (inhibitor, single point). For CCCC(CCC)C(=O)OC1C[C@H]2CC[C@@H](C1)[N+]2(C)C (some centres undefined) [CP325] the result was Potency 19011 nM (inhibitor, single point). For CCCC(CCC)C(=O)OC1C[C@H]2CC[C@@H](C1)[N+]2(C)C (some centres undefined) [CP305] the result was Potency 16944 nM (inhibitor, single point). CCCC(CCC)C(=O)OC1C[C@H]2CC[C@@H](C1)[N+]2(C)C (some centres undefined) [DIV14] read Potency 16944 nM (inhibitor, single point). CCCC(CCC)C(=O)OC1C[C@H]2CC[C@@H](C1)[N+]2(C)C (some centres undefined) [CP269] read Potency 19011 nM (inhibitor, single point). CCCC(CCC)C(=O)OC1C[C@H]2CC[C@@H](C1)[N+]2(C)C (some centres undefined) [CP237] read Potency 17782 nM (inhibitor, single point).

Some entries from above, unchanged:

compound,tested on / at,Potency (nM),curve as filed
CCCC(CCC)C(=O)OC1C[C@H]2CC[C@@H](C1)[N+]2(C)C (some centres undefined),CP250,10000,"inhibitor, single point"
NC(=O)C(=O)N/N=C/c1ccc([N+](=O)[O-])o1,CP211,19011,"inhibitor, single point"
NC(=O)C(=O)N/N=C/c1ccc([N+](=O)[O-])o1,CP192,19011,"inhibitor, single point"